Results are given in words; binding and its absence hold for the method and conditions named. Binding seen in cells or lysates may run through a third protein. Here binding means that the protein was enriched with, or labelled near, the bait; the list need not be complete.
What was measured:
Experiment in all cases: affinity purification with mass spectrometry
[1] = target: T1, SPATA5 (human (endogenous in HCT116)) (UniProt Q8NB90)
T1 sequence: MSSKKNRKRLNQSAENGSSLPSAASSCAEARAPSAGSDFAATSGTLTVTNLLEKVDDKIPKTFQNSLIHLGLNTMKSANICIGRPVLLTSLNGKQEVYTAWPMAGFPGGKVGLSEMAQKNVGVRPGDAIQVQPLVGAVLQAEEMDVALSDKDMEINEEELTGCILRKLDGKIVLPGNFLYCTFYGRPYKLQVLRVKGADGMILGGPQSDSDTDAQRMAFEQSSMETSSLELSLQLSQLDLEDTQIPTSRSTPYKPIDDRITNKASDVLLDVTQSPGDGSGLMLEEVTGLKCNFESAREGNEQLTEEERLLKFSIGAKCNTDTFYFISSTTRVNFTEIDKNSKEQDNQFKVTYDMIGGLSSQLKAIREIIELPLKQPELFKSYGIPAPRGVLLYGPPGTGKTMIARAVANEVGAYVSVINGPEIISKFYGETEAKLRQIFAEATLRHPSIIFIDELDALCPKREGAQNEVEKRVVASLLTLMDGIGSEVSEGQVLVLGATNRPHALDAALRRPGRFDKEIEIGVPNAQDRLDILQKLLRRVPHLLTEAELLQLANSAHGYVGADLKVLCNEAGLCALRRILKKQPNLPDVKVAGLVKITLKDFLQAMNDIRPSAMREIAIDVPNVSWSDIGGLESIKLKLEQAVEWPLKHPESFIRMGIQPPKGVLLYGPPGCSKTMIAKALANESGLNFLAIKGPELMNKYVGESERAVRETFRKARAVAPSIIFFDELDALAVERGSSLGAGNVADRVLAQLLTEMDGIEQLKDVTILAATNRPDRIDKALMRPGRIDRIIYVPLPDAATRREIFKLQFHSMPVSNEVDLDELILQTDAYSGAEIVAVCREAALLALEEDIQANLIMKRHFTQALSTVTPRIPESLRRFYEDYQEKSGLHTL

[2] = target: T2, SPATA5L1 (human (endogenous in HCT116)) (UniProt Q9BVQ7)
T2 sequence: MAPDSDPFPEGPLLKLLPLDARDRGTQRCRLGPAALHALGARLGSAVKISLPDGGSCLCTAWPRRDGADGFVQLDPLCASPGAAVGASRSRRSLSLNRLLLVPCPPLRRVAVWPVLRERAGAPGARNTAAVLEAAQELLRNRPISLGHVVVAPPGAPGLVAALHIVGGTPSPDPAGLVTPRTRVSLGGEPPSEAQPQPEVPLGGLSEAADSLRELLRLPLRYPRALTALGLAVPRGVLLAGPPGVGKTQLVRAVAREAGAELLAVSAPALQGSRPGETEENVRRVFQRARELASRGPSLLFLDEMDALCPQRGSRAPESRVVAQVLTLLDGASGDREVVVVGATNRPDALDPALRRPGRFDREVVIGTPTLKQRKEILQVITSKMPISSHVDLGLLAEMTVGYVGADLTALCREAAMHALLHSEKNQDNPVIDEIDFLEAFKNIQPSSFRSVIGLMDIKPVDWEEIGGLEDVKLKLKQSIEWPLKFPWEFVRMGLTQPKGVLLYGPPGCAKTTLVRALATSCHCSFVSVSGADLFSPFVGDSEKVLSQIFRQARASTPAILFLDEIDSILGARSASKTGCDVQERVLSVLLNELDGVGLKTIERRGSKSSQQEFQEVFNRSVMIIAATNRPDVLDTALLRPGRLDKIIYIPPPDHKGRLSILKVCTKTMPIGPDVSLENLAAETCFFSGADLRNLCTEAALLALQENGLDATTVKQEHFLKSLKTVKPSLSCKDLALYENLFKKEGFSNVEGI

[3] = target: T3, C1ORF109 (human (endogenous in HCT116)) (UniProt Q9NX04)
T3 sequence: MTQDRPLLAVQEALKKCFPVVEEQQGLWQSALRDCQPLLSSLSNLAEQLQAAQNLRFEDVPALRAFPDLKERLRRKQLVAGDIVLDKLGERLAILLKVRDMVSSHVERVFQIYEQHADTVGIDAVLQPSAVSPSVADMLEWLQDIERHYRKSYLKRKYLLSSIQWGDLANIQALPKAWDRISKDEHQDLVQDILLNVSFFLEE

[4] = substrate: T4, CINP (cyclin-dependent kinase 2 interacting protein) (human (endogenous in HCT116)) (UniProt Q9BW66)
T4 sequence: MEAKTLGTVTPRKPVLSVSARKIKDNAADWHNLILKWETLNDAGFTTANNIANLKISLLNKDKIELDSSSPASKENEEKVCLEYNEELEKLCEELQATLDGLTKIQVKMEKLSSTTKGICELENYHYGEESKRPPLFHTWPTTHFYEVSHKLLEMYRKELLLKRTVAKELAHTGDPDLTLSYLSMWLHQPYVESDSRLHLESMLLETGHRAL

Row | Binder | binding [1] | binding [2] | binding [3] | binding [4]
1 | CINP (cyclin-dependent kinase 2 interacting protein) (protein, UniProt Q9BW66 1-212) MEAKTLGTVTPRKPVLSVSARKIKDNAADWHNLILKWETLNDAGFTTANNIANLKISLLNKDKIELDSSSPASKENEEKVCLEYNEELEKLCEELQATLDGLTKIQVKMEKLSSTTKGICELENYHYGEESKRPPLFHTWPTTHFYEVSHKLLEMYRKELLLKRTVAKELAHTGDPDLTLSYLSMWLHQPYVESDSRLHLESMLLETGHRAL | binds | binds |  | 
2 | SPATA5 (protein, UniProt Q8NB90 1-893) MSSKKNRKRLNQSAENGSSLPSAASSCAEARAPSAGSDFAATSGTLTVTNLLEKVDDKIPKTFQNSLIHLGLNTMKSANICIGRPVLLTSLNGKQEVYTAWPMAGFPGGKVGLSEMAQKNVGVRPGDAIQVQPLVGAVLQAEEMDVALSDKDMEINEEELTGCILRKLDGKIVLPGNFLYCTFYGRPYKLQVLRVKGADGMILGGPQSDSDTDAQRMAFEQSSMETSSLELSLQLSQLDLEDTQIPTSRSTPYKPIDDRITNKASDVLLDVTQSPGDGSGLMLEEVTGLKCNFESAREGNEQLTEEERLLKFSIGAKCNTDTFYFISSTTRVNFTEIDKNSKEQDNQFKVTYDMIGGLSSQLKAIREIIELPLKQPELFKSYGIPAPRGVLLYGPPGTGKTMIARAVANEVGAYVSVINGPEIISKFYGETEAKLRQIFAEATLRHPSIIFIDELDALCPKREGAQNEVEKRVVASLLTLMDGIGSEVSEGQVLVLGATNRPHALDAALRRPGRFDKEIEIGVPNAQDRLDILQKLLRRVPHLLTEAELLQLANSAHGYVGADLKVLCNEAGLCALRRILKKQPNLPDVKVAGLVKITLKDFLQAMNDIRPSAMREIAIDVPNVSWSDIGGLESIKLKLEQAVEWPLKHPESFIRMGIQPPKGVLLYGPPGCSKTMIAKALANESGLNFLAIKGPELMNKYVGESERAVRETFRKARAVAPSIIFFDELDALAVERGSSLGAGNVADRVLAQLLTEMDGIEQLKDVTILAATNRPDRIDKALMRPGRIDRIIYVPLPDAATRREIFKLQFHSMPVSNEVDLDELILQTDAYSGAEIVAVCREAALLALEEDIQANLIMKRHFTQALSTVTPRIPESLRRFYEDYQEKSGLHTL |  | binds | binds | binds
3 | SPATA5L1 (protein, UniProt Q9BVQ7 1-753) MAPDSDPFPEGPLLKLLPLDARDRGTQRCRLGPAALHALGARLGSAVKISLPDGGSCLCTAWPRRDGADGFVQLDPLCASPGAAVGASRSRRSLSLNRLLLVPCPPLRRVAVWPVLRERAGAPGARNTAAVLEAAQELLRNRPISLGHVVVAPPGAPGLVAALHIVGGTPSPDPAGLVTPRTRVSLGGEPPSEAQPQPEVPLGGLSEAADSLRELLRLPLRYPRALTALGLAVPRGVLLAGPPGVGKTQLVRAVAREAGAELLAVSAPALQGSRPGETEENVRRVFQRARELASRGPSLLFLDEMDALCPQRGSRAPESRVVAQVLTLLDGASGDREVVVVGATNRPDALDPALRRPGRFDREVVIGTPTLKQRKEILQVITSKMPISSHVDLGLLAEMTVGYVGADLTALCREAAMHALLHSEKNQDNPVIDEIDFLEAFKNIQPSSFRSVIGLMDIKPVDWEEIGGLEDVKLKLKQSIEWPLKFPWEFVRMGLTQPKGVLLYGPPGCAKTTLVRALATSCHCSFVSVSGADLFSPFVGDSEKVLSQIFRQARASTPAILFLDEIDSILGARSASKTGCDVQERVLSVLLNELDGVGLKTIERRGSKSSQQEFQEVFNRSVMIIAATNRPDVLDTALLRPGRLDKIIYIPPPDHKGRLSILKVCTKTMPIGPDVSLENLAAETCFFSGADLRNLCTEAALLALQENGLDATTVKQEHFLKSLKTVKPSLSCKDLALYENLFKKEGFSNVEGI | binds |  | binds | binds

From article doi:10.1101/2025.11.07.687187
